Measurements from paper PMC5581314, “Targeting the Type II Secretion System: Development, Optimization, and Validation of a High-Throughput Screen for the Identification of Small Molecule Inhibitors” (Frontiers in Cellular and Infection Microbiology, 2017).

Biological target: T1, LipA (Acinetobacter baumannii, UniProt A0ABX6CKD6)
T1 construct: gene lip; secreted LipA from plasmid-encoded lipBA, in culture supernatant
Assay: 4-nitrophenyl myristate lipase assay; IC50 in whole culture, direct inhibition by cell-free supernatant counter-screen
Assay type: cell-based

For `CNCCCC12CCC(c3ccccc31)c1ccccc12` [Maprotiline], the IC50 was 16 µM.
